Assay results taken from the supplement of paper PMC12889115.
Some of the results follow. These are raw signals, not scaled to a control.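 In the initial screen, polymyxin B was used at a concentration that permeabilizes Salmonella's outer membrane but not its inner membrane. Maximum growth was set by DMSO wells with or without polymyxin B. Since plates varied, data were ranked per plate, and compounds giving the lowest OD600 advanced as hits.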

Test system: Salmonella enterica serovar Typhimurium SL1344
Assay: bacterial growth OD600 after 18 h with compound and polymyxin B; higher = more bacterial growth (less inhibition)
Details: 50 µM, Mueller-Hinton broth

| Compound | bacterial growth OD600 (polymyxin B 0.75 µg/mL) | bacterial growth OD600 (polymyxin B 1 µg/mL) |
| --- | --- | --- |
| c1coc(CN2CCc3[nH]nc(-c4ccc5c(c4)OCO5)c3C2)c1 | 0.812 | – |
| CCC(COC)NC(=O)c1ccc(OC)c(OC2CCN(C(C)=O)CC2)c1 (stereo not given) | – | 0.947 |
| COc1ccc(CCN2CC(NC(=O)C3CC3)CC2=O)cc1 (stereo not given) | – | 0.884 |
| CC1CCN(C(=O)c2cn(CC3COc4ccccc4O3)nn2)CC1 (stereo not given) | – | 0.799 |
| COC1CCCN(c2ccc(C(=O)N3CCC(CCn4cccn4)CC3)cn2)C1 (stereo not given) | – | 0.921 |
| Cc1cccc(NC(=O)CCC2CCN(C(=O)C3CC34CCCCC4)CC2)c1 (stereo not given) | – | 0.009 |
| COCCN1C(=O)CC(CC(=O)N(C)C(C)c2nc(C)cs2)(c2ccccc2OC)C1=O (stereo not given) | 0.884 | – |
| COc1ccc(OC2CCN(C3CCCC3)CC2)c(C(=O)NCc2ccncc2C)c1 | 0.872 | – |
| O=C(C1CCOCC1)N1CCCC(CCc2cccc(F)c2)C1 (stereo not given) | 0.701 | – |
| Cc1nn(C)cc1CN(C)C(=O)c1coc(COc2cccc(F)c2F)n1 | – | 0.937 |
| C=CCO[C@H]1[C@H](NC(=O)COC)c2ccccc2C12CCN(Cc1c(C)nn(C(C)C)c1C)CC2 | 0.978 | – |
| Cc1cccc(CN2CCCC(O)(CNCc3ccon3)C2=O)c1 (stereo not given) | 1 | – |
| O=C1N(Cc2ccc(F)c(F)c2)CCCC1(O)CNC1CCCCCC1 (stereo not given) | – | 0.413 |
| COCc1ccc(C(=O)Nc2ccc(-c3nc(CNC(=O)c4ccc5c(c4)OCO5)c(C)o3)cc2)o1 | 0.761 | – |
| COC(=O)c1c(OCc2ccsc2)cc(=O)n2c1CCN(C(=O)C1Cc3ccccc3O1)CC2 (stereo not given) | 0.783 | – |
| CCC(=O)NC1CC(=O)N(Cc2cccc3ccccc23)C1 (stereo not given) | – | 1.01 |
| CCOCC(O)CNC(=O)c1ccc(OC2CCN(CC(C)(C)C)CC2)c(Cl)c1 (stereo not given) | – | 0.863 |
| COc1ccc(CCN(CC2CCN(C)CC2)C(=O)C2CC23CCC3)cc1 (stereo not given) | – | 0.934 |
| Clc1ccc(-c2noc(CN(Cc3ccncc3)CC3CCCO3)n2)cc1 (stereo not given) | 0.506 | – |
| Cc1nc(C)c(CN2CCC(C3CCN(CC(C)(C)C)C3)CC2)nc1C (stereo not given) | 0.932 | – |

Reprinted from the listing (2 entries):

| Compound | bacterial growth OD600 (polymyxin B 0.75 µg/mL) | bacterial growth OD600 (polymyxin B 1 µg/mL) |
| --- | --- | --- |
| CCC(=O)NC1CC(=O)N(Cc2cccc3ccccc23)C1 (stereo not given) | – | 1.01 |
| CCOCC(O)CNC(=O)c1ccc(OC2CCN(CC(C)(C)C)CC2)c(Cl)c1 (stereo not given) | – | 0.863 |
